According to patent US4659716A, “Antihistaminic 8-(halo)-substituted 6,11-dihydro-11-(4-piperidylidene)-5H-benzo[5,6]cyclohepta[1,2-b]pyridin es” (Schering Corporation, priority 1986, dated 1987):

Assays:
[1] = test system: histamine-induced lethality; assay: Prevention of histamine-induced lethality in guinea pigs (A); type: in vivo, guinea pigs (female albino); conditions: Cavia porcellus; oral, 1 hour prior to i.v. histamine 1.1 mg/kg; read-out: Antihistaminic Activity, A. G. pig. p.o. ED50
Description: (§1) Compounds A and B were also tested for antihistaminic activity by the procedures set forth in paragraph A below and for CNS activity by the procedures set forth in paragraphs B, C, and D below.
A. Prevention of histamine-induced lethality in guinea pigs. Compounds A and B were evaluated for their ability to protect female albino guinea pigs (250-350 g) against death induced by the intravenous injection of histamine dihydrochloride at 1.1 mg/kg, which is approximately twice the LD99. Doses of the antagonists were administered orally to separate groups of fasted animals 1 hour prior to the challenge with histamine and protection from death recorded for 30 minutes after histamine. ED50 values were determined for each drug by […].

[2] = Antagonism of physostigmine lethality (B); type: in vivo, mice; conditions: mouse, physostigmine-induced lethality; oral, unit inferred; read-out: ED50 in the physostigmine-induced lethality test
Description: as §1
(§2) B. Antagonism of Physostigmine Lethality. The physostigmine-induced lethality test used was a modification of the technique reported by COLLIER et al., Br. J. Pharmac., 32, 295-310 (1968). Physostigmine salicylate (b 1.0 mg/kg s.c.) produces 100% lethality when administered to mice grouped 10 per plastic cage (11×26×13 cm). Test agents were administered orally 30 minutes prior to physostigmine. The number of survivors were counted 20 minutes after physostigmine administration.
Of the above test procedures for measuring CNS activity of antihistamines, the physostigmine-induced lethality test is believed to be a major index of non-sedating characteristics, since it reflects mainly central anticholinergic potency which is believed to contribute to sedative activity.

[3] = test system: histamine-induced paw edema; assay: Histamine-induced paw edema in mice (oral); type: in vivo, mice (male CF1)
Description: For example, the ability of the compounds to reduce histamine-induced paw edema in mice may be measured by use of the following method.
Male CF1 mice, 25-30 g, are housed under conditions of controlled temperature and humidity with a 12 hour dark/light cycle. Food and water are allowed ad libitum. The mice are randomly assigned to the treatment groups. One hour after treatment with a compound of the invention or vehicle, the mice are lightly anesthetized with ether. The left hind paw of each mouse serves as a control and is injected with 25 μl of isotonic saline. The right hind paw serves as the experimental paw and is injected with 25 μl of isotonic saline containing 13 μg histamine dihydrochloride. Thirty minutes later the mice are killed by cervical dislocation and both hind paws of each mouse are removed by cutting at the tarsal joint. The weight of each paw is recorded and the difference in weight between the compound-treated and the placebo-treated groups is evaluated using Student's "t" test. The ED50 values (the dose causing 50% inhibition of histamine-induced edema) and 95% confidence limits are determind by the Linear Least Square Dose-Response method [Brownlee, K. A., "Statistical Theory And Methodology In Science and Engineering", 2nd Ed., J. Wiley and Sons, New York, 1965, pp. 346-349].

CNS activity = assay: CNS test procedures B, C and D taken together; type: in vivo, mice; conditions: oral
Description: as §1, §2
(§3) C. Antagonism of Acetic Acid Writhing. The acetic acid writhing test used was essentially that described by HENDERSHOT and FORSAITH, J. Pharmac. Exp. Ther., 125, 237-240 (1959), except that acetic acid rather than phenylquinone was used to elicit writhing. Mice were injected with 0.6% aqueous acetic acid at 10 mg/kg i.p. 15 minutes after oral administration of the test drug. The number of writhes for each animal was counted during a 10 minute period starting 3 minutes after acetic acid treatment. A writhe was defined as a sequence of arching of the back, pelvic rotation and hind limb extension.
D. Antagonism of Electro-Convulsive Shock (ECS). […]

[4] = Antagonism of electro-convulsive shock (ECS) (D); type: in vivo, mice; conditions: mouse, oral, 1 hour before 13 mA shock, read-out: CNS Activity, D. ECS test ED50
Description: as §1
D. Antagonism of Electro-Convulsive Shock (ECS). For the ECS test, a modification of the method of TOMAN et al., J. Neurophysiol., 9, 231-239 (1946), was used. One hour after oral administration of the test drug or vehicle, mice were administered a 13 mA, 60 cycle a.c. electroconvulsant shock (ECS) for 0.2 seconds via corneal electrodes. This shock intensity produces tonic convulsions, defined as extension of the hind limbs, in at least 95% of vehicle-treated mice.

[5] = Antagonism of acetic acid writhing (C); type: in vivo, mice; conditions: mouse, oral, 15 minutes before acetic acid i.p., read-out: CNS Activity, C. Acetic writhing ED50
Description: as §1, §3

In the case of `Clc1ccc2c(c1)CCc1cccnc1C2=C1CCNCC1` [Compound A, 8-chloro-6,11-dihydro-11-(4-piperidylidene)-5H-benzo[5,6]cyclohepta[1,2-b]pyridine], the ED50 [1] is reported as 0.15 mg/kg, the ED50 [2] is reported as greater than 320 mg/kg and the ED50 ([3]; Mus musculus, dose causing 50% inhibition of histamine-induced edema, oral, 1 hour before) is reported as 0.15 mg/kg. The “Increased Paw Weight, % Inhibition” value ([3]; oral dose 0.03 mg/kg, 8 animals) was 11%, the “Increased Paw Weight, % Inhibition” value ([3]; oral dose 0.1 mg/kg, 7 animals) was 42% and the “Increased Paw Weight, % Inhibition” value ([3]; oral dose 0.3 mg/kg, 8 animals) was 73%. For the same compound, the “Increased Paw Weight, % Inhibition” value ([3]; oral dose 1.0 mg/kg, 8 animals) was 89%, the “Activity in all of the CNS test procedures” value (CNS activity) was “relatively inactive” and the ED50 at 1 h [4] was 160 mg/kg. It also gave an ED50 [5] of 147 mg/kg.
